Results: PubChem BioAssay AID1347076 (National Center for Advancing Translational Sciences (NCATS), 2019)
Several values for one entry are separate records, joined by “and”; a condition that tells them apart may be missing. Identical values can stand only once. Among all 400,000 compounds or so, about 13,000 (3.2%) were called active. Inconclusive means that the source gave no clear call. Such entries were picked first, then a sample of the others. The call rests on the fitted dose curve; in most records, active means well fitted cell-killing curve with a large enough effect; inconclusive means small, poorly fitted or top-dose-only effect, or effect the other way; inactive means flat fitted curve, though single readings scatter. Potencies beside an inconclusive call are fits to weak or partial responses and may not hold up.

experiment: qHTS assay for MDR1-selective chemotherapeutics: Primary screen using the drug-selected MDR subline cells KB-V1; conditions: KB-V1 MDR cells viability, CellTiter-Glo, 72 h; activity change, negative = cytotoxicity: at 46.1 µM (top of the series); further: nearly all actives have a fitted effect of over 60% in size
Summary of the method: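 KB-V1 cells (P-gp-expressing MDR subline of KB-3-1) in phenol-red-free DMEM with 10% FBS were exposed to library compounds over a concentration series for 72 h at 37 degrees C. Viability read by CellTiter-Glo luminescence; concentration-effect curves fitted after normalization.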
On the % scale 0 is the no-effect control and ±100 the full control effect; potency means the concentration at half of the fitted maximal effect.

Structure (SMILES) | activity change, negative = cytotoxicity | Potency
Cc1ccc(-n2ncc(C(=O)NC3CCN(Cc4ccccc4)CC3)c2C2CCN(C(=O)OC(C)(C)C)CC2)cc1C | inactive: -7.6% | 
CC1(C)Cc2c(sc3nc(-c4cccs4)n(N)c(=O)c23)CO1 |  | active: 8.2 µM
CCSc1nnc(NC(=O)CC)s1 |  | inconclusive: 29.1 µM [cytotoxic, single point]
O=C(Nc1ccccc1Cl)C1CCN(S(=O)(=O)c2cccc3nonc23)CC1 |  | inconclusive: 7.31 µM [cytotoxic, partial curve]
CC(C)Oc1ccc(Nc2ncnc3ccccc23)cc1 |  | inconclusive: 23.1 µM [cytotoxic, single point]
Nc1nc2n[nH]nc2c(=O)[nH]1 |  | inconclusive: 1.46 µM [cytotoxic, full curve] and inconclusive: 1.84 µM [cytotoxic, full curve]
CC(Sc1nc(=O)cc(N)n1CCc1ccccc1)C(=O)Nc1cccc(Cl)c1 (centres undefined) |  | inconclusive: 29.1 µM [rising, single point]
O=c1[nH]c(SCc2ccccc2)nc2c1sc1ccccc12 | inactive: -5.58% | 
COc1ccc(-n2c(=O)c3ccccc3n(Cc3ccccc3Cl)c2=O)cc1 | inactive: 29.4% | 
COCCN(CC(=O)NC1CCCCC1)C(=O)CCCC(=O)Nc1ccccn1 |  | inconclusive: 29.1 µM [cytotoxic, single point]
CCn1c(C)nc2cc(-c3nnc(-c4c(-c5ccccc5)noc4C)o3)ccc21 |  | inconclusive: 0.517 µM [cytotoxic, full curve, poor fit]
C[C@@H]1CN([C@@H](C)CO)C(=O)c2cc(Br)cnc2O[C@H]1CN(C)C(=O)NC1CCCC1 | inactive: 9.09% | 
CCc1ccc(C(=O)COC(=O)C(CCSC)NC(=O)C23CC4CC(CC(C4)C2)C3)cc1 (centres undefined) |  | inconclusive: 8.2 µM [rising, partial curve, poor fit]
Clc1ccc2nc(-c3cccc(SC4CCCCC4)c3)c(NCc3ccccc3)n2c1 | inactive: 8.66% | 
COc1ccc(N(CC(=O)NCCSc2ccccc2)S(=O)(=O)c2ccccc2)cc1 |  | inconclusive: 29.1 µM [cytotoxic, single point]
COc1ccccc1N1CCN(S(=O)(=O)c2c(C)sc3ncn(CC(=O)Nc4ccc(C)cc4Br)c(=O)c23)CC1 |  | inconclusive: 29.1 µM [rising, single point]
COc1ccc(CC(=O)Nc2ccc(N3CCOCC3)cc2)cc1OC |  | inconclusive: 10.3 µM [cytotoxic, partial curve]
Cc1cc(C)cc(C(=O)NC(=S)Nc2ccc(Cc3ccncc3)cc2)c1 |  | inconclusive: 23.1 µM [cytotoxic, partial curve]
COc1ccc(C(=O)Nc2nc3n(n2)C(c2ccc(Cl)cc2)C=C(c2ccccc2)N3)cc1OC (centres undefined) | inactive: 16% | 
Cc1ccc([N+](=O)[O-])cc1N=Nc1c(-c2ccc([N+](=O)[O-])cc2)[nH]n(C(N)=S)c1=O |  | inconclusive: 20.6 µM [cytotoxic, single point]
C=CCN(Cc1nc(-c2ccccc2)no1)C(=O)c1ccc2c(c1)OCO2 |  | inconclusive: 18.4 µM [cytotoxic, single point]
COc1ccccc1NC(=O)N(Cc1cccs1)Cc1cc2cc3c(cc2[nH]c1=O)OCO3 |  | inconclusive: 14.6 µM [cytotoxic, partial curve, poor fit]

Structure (SMILES) | activity change, negative = cytotoxicity | Potency
CCOC(=O)c1cc(S(=O)(=O)NCC2CCN(Cc3cccc(C)c3)CC2)cn1C | inconclusive: 5.34% | 
CCc1ccccc1NC(=O)CN1C(=O)C2CCCN2c2ncc(Cl)cc21 (centres undefined) |  | active: 14.6 µM
O=C(COC(=O)C1CC1)NCCc1ccccc1 |  | inconclusive: 29.1 µM [rising, single point]
CCc1nc2c(OCc3cc(Cl)cc(Cl)c3)cccn2c1N(C)C(=O)Nc1ccccc1OC |  | active: 20.6 µM
CN=C(C)C1=C(O)C(C(=O)OC)C(C)(C)CC1=O (centres undefined) |  | inconclusive: 25.9 µM [rising, single point]
Cc1cc(=O)[nH]c2nnc(-c3ccc(Br)cc3)n12 | inactive: 17.8% | 
Nc1cc(Nc2ccccc2)ccn1 | inactive: -20.1% | 
COc1ccc(-c2csc(Nc3ccccc3)[n+]2Cc2ccccc2)cc1 |  | inconclusive: 10.3 µM [cytotoxic, partial curve]
O=C(O)CSc1ncnc2sc3c(c12)CCCC3 | inactive: 10.5% | 
O=C(CCn1cnnn1)Nc1ccc(Cl)c(Cl)c1 |  | inconclusive: 20.6 µM [cytotoxic, single point]
CN(C)c1ccc(NC(=S)N2CCN(c3ncc(C(F)(F)F)cc3Cl)CC2)cc1 | inactive: 2.8% | 
Fc1ccc(COc2ccc(Br)cc2CNCc2ccncc2)cc1 |  | active: 2.91 µM
CCOC(=O)C1=CN(Cc2cccc(-c3ccc(F)cc3)c2)S(=O)(=O)N(C)C1C (centres undefined) |  | inconclusive: 4.11 µM [cytotoxic, single point]
CN(CC(=O)Nc1ccc(OC(F)(F)F)cc1)S(=O)(=O)c1cnc[nH]1 |  | inconclusive: 25.9 µM [rising, single point]
COC(=O)c1ccc(/C=C2/SC(=S)N(CCCC(=O)Nc3ccc(O)cc3)C2=O)cc1 | inactive: -6.45% | 
CC(=O)N(C)c1ccc(NC(=O)CCN2C(=O)c3ccccc3C2=O)cc1 |  | inconclusive: 29.1 µM [rising, single point]
O=C(Nc1cccc(Cl)c1)c1cc(N=Nc2ccc([N+](=O)[O-])cc2Cl)ccc1O |  | inconclusive: 29.1 µM [cytotoxic, single point]
Cc1cccc(C2N=C(N)Nc3nc4ccccc4n32)c1 (centres undefined) |  | inconclusive: 29.1 µM [rising, single point]
CCn1nc(C)c(NC(=O)Nc2cccc(Cl)c2Cl)c1C |  | inconclusive: 29.1 µM [rising, single point]
C=CC[C@@H](Cc1ccc(F)cc1)C(=O)OC[C@@H]1CCCN1C(=O)[C@H](CC=C)CC(=O)N(CCO)Cc1ccccc1 |  | active: 20.6 µM
Clc1ccc(-n2ncc3c(NCCN4CCOCC4)ncnc32)cc1 | inactive: -17.1% | 
Nc1[nH]c(C(=O)c2ccccc2)c(-c2ccc(Cl)c(F)c2)c1C(=O)NCCc1c[nH]c2ccccc12 |  | inconclusive: 16.4 µM [cytotoxic, single point]
